# Assay results

Source: PubChem BioAssay AID912 (NCATS, 2007).

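A cell-based FRET test of anthrax lethal toxin entry, tracked through the 460 nm emission signal; the cell line is not named here.
Each compound was tested as a concentration series from about 0.0005 to 40 µM.
The number is the fitted AC50 of the 460 nm signal alone; lower values mean a more potent effect. A falling signal goes with compounds filed as inhibitors or cytotoxic, a rising one with activators or fluorescent compounds (inferred from the filed classes).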

Values are in µM.
Common to all entries: measured here: 460 nm channel.
This is a side read-out of the assay, for part of the compounds, not drawn at random.
Potencies fitted to partial, single-point or poorly fitting curves are rough.
The first word of each remark tells which way the curve ran; it can be opposite to the aim of the assay.

Compound | AC50 (µM) | curve
O=C1Nc2ccc(S(=O)(=O)NCCC3=CCCCC3)c3cccc1c23 | 15.85 | rising, single point
CN(C1CCCCC1)S(=O)(=O)c1ccc2c(c1)c(=O)c(C(=O)NCCN1CCCC1)cn2C | 12.59 | falling, partial curve
C[C@@H](C(=O)Nc1ccc2ccccc2c1)[C@@H]1C[C@@]1(C)[C@@H](N)c1ccccc1 | 31.62 | falling, single point
COc1c(O)cc2oc3cc(O)c(CC=C(C)C)c(O)c3c(=O)c2c1CC=C(C)C | 12.59 | falling, full curve
COCCCn1c(N)c(C(=O)OC(C)COC)c2nc3ccccc3nc21 (centres undefined) | 12.59 | rising, partial curve
O=C(NCc1nc(-c2ccccc2)no1)c1ccc(Br)o1 | 2.512 | rising, partial curve
Cc1nnc(S(=O)(=O)c2ccc(N=Nc3c(N)nc(N)nc3N)cc2)s1 | 0.1 | falling, single point
N#Cc1cccc(NC(=O)N2CC[C@@]3(CCCN(C(=O)c4ccco4)C3)C2)c1 | 5.012 | falling, single point
Cc1ccc(NC2=NC(c3ccc(C)cc3)n3c(nc(C)cc3=O)N2)cc1 (centres undefined) | 12.59 | rising, partial curve
Cn1nnc(NC(=O)C(c2ccccc2)c2ccccc2)n1 | 0.631 | rising, full curve, poor fit
C[C@@H](C(=O)NCCc1c[nH]c2ccccc12)[C@@H]1C[C@@]1(C)[C@@H](NC(=O)OCc1ccccc1)c1ccccc1 | 31.62 | falling, single point
CCOC(=O)CCc1c(C)nc2c(c(C)nn2C(C)(C)C)c1C | 10 | falling, partial curve
Cc1cc(C)c(C(N)=O)c(NCCc2ccccc2)n1 | 0.01 | falling, full curve, poor fit
CCN(CC)c1ccc(C2CC(=O)NC3=C2C(=O)CC(C)(C)C3)cc1 (centres undefined) | 3.162 | falling, single point
CCCCC(=O)N1CCCC(c2nc3c(nnn3Cc3cc(C)ccc3C)c(=O)[nH]2)C1 (centres undefined) | 12.59 | rising, single point
COCCn1c(=O)c(-c2cccc(C#N)c2)nc2cnc(N3CCOCC3)nc21 | 10 | rising, partial curve
O=C(CC1COc2ccccc2O1)Nc1ccccn1 (centres undefined) | 0.01585 | rising, full curve, poor fit
C(=C/c1ccccc1)/CN1CCN(CCOC(c2ccccc2)c2ccccc2)CC1 | 25.12 | falling, partial curve
CCOC(=O)c1cnc2c(C)cccc2c1NCc1ccco1 | 31.62 | falling, single point
CC(=O)Nc1nc(-c2ccccc2)nc(-c2ccccc2OC(C)=O)n1 | 10 | falling, partial curve
COC(=O)c1ccc(CNC(=O)COc2ccccc2Br)o1 | 0.003162 | falling, full curve, poor fit
NC1=NC2(CCC(c3ccccc3)CC2)n2c(nc3ccccc32)N1 (centres undefined) | 10 | falling, partial curve
CN1CCN(c2ncc3nc(-c4cn(C)c5ccccc45)c(=O)n(CCC#N)c3n2)CC1 | 12.59 | rising, partial curve
CC(=O)Nc1cc2c(cc1C(=O)C(C)C)OCCO2 | 15.85 | rising, single point
c1ccc(CNc2ncnc3c2cnn3-c2ccccc2)cc1 | 0.631 | falling, partial curve
O=C(c1cc(C(F)(F)F)cc(C(F)(F)F)c1)N1CCC[C@@]2(CCN(c3ccncc3)C2)C1 | 5.012 | falling, single point
Cc1nc2ccccc2c2oc(C(=O)N3CCc4ccccc4C3)cc12 | 12.59 | falling, partial curve
COc1cc(OC)c(C(=O)CCCCN2CCC3(CC2)NC(=O)NC3=O)cc1NS(=O)(=O)c1ccc(C(F)(F)F)cc1 | 12.59 | falling, single point
O=c1oc2c(CN3CCCCC3)c(O)ccc2cc1-c1nc2ccccc2[nH]1 | 10 | rising, partial curve
O=C(Nn1cnnc1)C(Sc1ccccc1)c1ccccc1 (centres undefined) | 1.995 | rising, single point
CCCCN(C(=O)c1ccc(Cl)cc1)C1CC2CCC(C1)N2C (centres undefined) | 12.59 | falling, single point
CCOC(=O)/C(C#N)=C1/C=C(C)NC(c2ccccc2O)=N1 | 3.162 | falling, full curve
CCC(=O)N1CCN(c2nc(-c3ccccc3)c3c(c2C#N)CCCC3)CC1 | 0.7943 | rising, full curve
CC1(C)Oc2ccc(C#N)cc2[C@H](N2CCCC2=O)[C@H]1O | 31.62 | falling, single point
CCCN(CCC)c1c([N+](=O)[O-])cc(C(F)(F)F)cc1[N+](=O)[O-] | 12.59 | falling, partial curve
CS(=O)(=O)N1CCc2cc(-c3csc(NC(=O)Cc4cccs4)n3)ccc21 | 10 | falling, partial curve
CCCS(=O)(=O)NCCc1cc2ccc(C)cc2[nH]c1=O | 5.012 | rising, single point
c1ccc(-c2nc3nc4ccccc4nc3n2Cc2ccco2)cc1 | 6.31 | rising, partial curve
Cc1nn2c(=O)nc3sc4c(c3c2[nH]c1=O)CCCC4 | 1 | rising, partial curve
Cc1ccc(SCCNS(=O)(=O)c2ccc3c(c2)OCCO3)cc1 | 0.05012 | falling, full curve, poor fit
C/C=C/Cn1c(SCCCc2ccccc2)nc2c1c(=O)[nH]c(=O)n2C | 12.59 | falling, partial curve
Cc1ccc(NC(=O)c2ccccc2C(=O)O)cc1C | 1 | falling, single point
CCOC(=O)C1CCCN(C(=O)Cn2cccc2C(=O)c2ccccc2)C1 (centres undefined) | 15.85 | rising, single point
OCCNCC(O)Cn1ccc2ccccc21 (centres undefined) | 3.981 | rising, single point
C[C@@H]1CCC/C=C\[C@H]2C[C@H](O)C[C@@H]2[C@H](O)/C=C\C(=O)O1 | 0.2512 | falling, full curve
COc1cccc(-c2cnc(NCc3cc(Cl)ccc3O)n2C)c1 | 31.62 | falling, partial curve

5 of the entries, repeated:

Result for CCOC(=O)c1cnc2c(C)cccc2c1NCc1ccco1 was AC50 31.62 µM (falling, single point).
Result for NC1=NC2(CCC(c3ccccc3)CC2)n2c(nc3ccccc32)N1 (centres undefined) was AC50 10 µM (falling, partial curve).
Result for CS(=O)(=O)N1CCc2cc(-c3csc(NC(=O)Cc4cccs4)n3)ccc21 was AC50 10 µM (falling, partial curve).
Result for O=c1oc2c(CN3CCCCC3)c(O)ccc2cc1-c1nc2ccccc2[nH]1 was AC50 10 µM (rising, partial curve).
Result for COc1cc(OC)c(C(=O)CCCCN2CCC3(CC2)NC(=O)NC3=O)cc1NS(=O)(=O)c1ccc(C(F)(F)F)cc1 was AC50 12.59 µM (falling, single point).